PubChem BioAssay AID686938 | Drosophila RNAi Screening Center, 2013
Assay: 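Knock-downs reducing store-operated calcium influx in Drosophila cells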 (primary screen). System: Drosophila S2R+ cells. Reagents: long dsRNA against Drosophila genes, about 0.25 µg dsRNA per well, roughly 10,000 cells. Time to read-out: 5 days of knock-down before the calcium assay. Conditions: thapsigargin (SERCA pump blocker) to empty calcium stores; entry signal taken 4 min after adding it. Measurement: 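Per-well fluo-4 fluorescence in two replicates, unnormalised, measured in resting cells and 4 min after store depletion by the SERCA blocker thapsigargin; ratio of the two present in few wells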. Reading the numbers: calcium entry signal: higher = stronger calcium signal after store depletion; resting calcium signal: higher = higher resting calcium signal. Rule for the call: 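Called when the plate z-score of the entry-to-rest ratio, mean of duplicates, falls below −3; wells with low overall dye signal (Fmax z below −2) or more than five off-targets excluded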. Calls: active = strongly reduced calcium entry; inactive = no strong reduction.
The deposit covers about 23,000 reagents; this is a random part of those that have a named target and a result. In the full data, 75 (0.33%) were called active. 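Raw plate signals without normalisation; calls rest on plate z-scores that were not deposited; ratio present for only 364 wells.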 Reagent sequences are not shown. Not stated in the record: the dose of the treatment.

Sema2a [DRSC07551] → calcium entry signal, replicate 1 (fluorescence units): 3.52e7; calcium entry signal, replicate 2 (fluorescence units): 3.19e7; resting calcium signal, replicate 1 (fluorescence units): 1.67e7; resting calcium signal, replicate 2 (fluorescence units): 1.78e7; outcome: inactive
CG6567 [DRSC16066] → calcium entry signal, replicate 1 (fluorescence units): 4.06e7; calcium entry signal, replicate 2 (fluorescence units): 3.50e7; resting calcium signal, replicate 1 (fluorescence units): 2.02e7; resting calcium signal, replicate 2 (fluorescence units): 1.83e7; outcome: inactive
Rcd5 [DRSC08180] → calcium entry signal, replicate 1 (fluorescence units): 4.29e7; calcium entry signal, replicate 2 (fluorescence units): 3.08e7; resting calcium signal, replicate 1 (fluorescence units): 3.13e7; resting calcium signal, replicate 2 (fluorescence units): 1.71e7; outcome: inactive
BEAF-32 [DRSC05927] → calcium entry signal, replicate 1 (fluorescence units): 4.06e7; calcium entry signal, replicate 2 (fluorescence units): 4.80e7; resting calcium signal, replicate 1 (fluorescence units): 1.75e7; resting calcium signal, replicate 2 (fluorescence units): 2.22e7; outcome: inactive
Ets97D [DRSC16665] → calcium entry signal, replicate 1 (fluorescence units): 2.70e7; calcium entry signal, replicate 2 (fluorescence units): 5.44e7; resting calcium signal, replicate 1 (fluorescence units): 1.41e7; resting calcium signal, replicate 2 (fluorescence units): 2.50e7; outcome: inactive
CG32425 [DRSC11739] → calcium entry signal, replicate 1 (fluorescence units): 1.53e7; calcium entry signal, replicate 2 (fluorescence units): 3.24e7; resting calcium signal, replicate 1 (fluorescence units): 1.04e7; resting calcium signal, replicate 2 (fluorescence units): 1.79e7; outcome: inactive
CG32425 [DRSC11764] → calcium entry signal, replicate 1 (fluorescence units): 3.79e7; calcium entry signal, replicate 2 (fluorescence units): 5.09e7; resting calcium signal, replicate 1 (fluorescence units): 1.81e7; resting calcium signal, replicate 2 (fluorescence units): 3.32e7; outcome: inactive
frm [DRSC09753] → calcium entry signal, replicate 1 (fluorescence units): 4.67e7; calcium entry signal, replicate 2 (fluorescence units): 3.51e7; resting calcium signal, replicate 1 (fluorescence units): 2.97e7; resting calcium signal, replicate 2 (fluorescence units): 1.74e7; outcome: inactive
CG34002 [DRSC09512] → calcium entry signal, replicate 1 (fluorescence units): 3.10e7; calcium entry signal, replicate 2 (fluorescence units): 4.38e7; resting calcium signal, replicate 1 (fluorescence units): 1.43e7; resting calcium signal, replicate 2 (fluorescence units): 2.00e7; outcome: inactive
CG13476 [DRSC10019] → calcium entry signal, replicate 1 (fluorescence units): 5.18e7; calcium entry signal, replicate 2 (fluorescence units): 7.12e7; resting calcium signal, replicate 1 (fluorescence units): 2.38e7; resting calcium signal, replicate 2 (fluorescence units): 2.67e7; outcome: inactive
salr [DRSC03607] → calcium entry signal, replicate 1 (fluorescence units): 4.75e7; calcium entry signal, replicate 2 (fluorescence units): 4.75e7; resting calcium signal, replicate 1 (fluorescence units): 2.18e7; resting calcium signal, replicate 2 (fluorescence units): 2.05e7; outcome: inactive
CG14990 [DRSC08449] → calcium entry signal, replicate 1 (fluorescence units): 3.55e7; calcium entry signal, replicate 2 (fluorescence units): 4.13e7; resting calcium signal, replicate 1 (fluorescence units): 1.89e7; resting calcium signal, replicate 2 (fluorescence units): 1.83e7; outcome: inactive
CG5098 [DRSC06915] → calcium entry signal, replicate 1 (fluorescence units): 3.90e7; calcium entry signal, replicate 2 (fluorescence units): 3.64e7; resting calcium signal, replicate 1 (fluorescence units): 1.84e7; resting calcium signal, replicate 2 (fluorescence units): 1.78e7; outcome: inactive
CG11409 [DRSC18579] → calcium entry signal, replicate 1 (fluorescence units): 4.04e7; calcium entry signal, replicate 2 (fluorescence units): 4.20e7; resting calcium signal, replicate 1 (fluorescence units): 1.94e7; resting calcium signal, replicate 2 (fluorescence units): 1.99e7; outcome: inactive

Part of the list above, showing only “resting calcium signal, replicate 2 (fluorescence units)”.
salr [DRSC03607]: 2.05e7
CG14990 [DRSC08449]: 1.83e7
